# Data as given in the supplement of paper PMC7666118.
# By UniProt entry, the sequences of proteins in these tests, tags left out. Where a name states a change or a piece, a line headed by the entry shows the natural chain unless it says otherwise.
# UniProt Q13126: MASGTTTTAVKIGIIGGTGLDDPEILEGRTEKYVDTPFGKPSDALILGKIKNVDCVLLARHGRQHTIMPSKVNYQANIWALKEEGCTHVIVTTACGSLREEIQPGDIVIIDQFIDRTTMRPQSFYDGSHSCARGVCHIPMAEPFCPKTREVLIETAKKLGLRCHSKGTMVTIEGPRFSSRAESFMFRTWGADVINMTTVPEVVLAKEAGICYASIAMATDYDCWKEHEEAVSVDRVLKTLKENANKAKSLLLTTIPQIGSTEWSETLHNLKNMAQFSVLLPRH
# UniProt Q9UJG1: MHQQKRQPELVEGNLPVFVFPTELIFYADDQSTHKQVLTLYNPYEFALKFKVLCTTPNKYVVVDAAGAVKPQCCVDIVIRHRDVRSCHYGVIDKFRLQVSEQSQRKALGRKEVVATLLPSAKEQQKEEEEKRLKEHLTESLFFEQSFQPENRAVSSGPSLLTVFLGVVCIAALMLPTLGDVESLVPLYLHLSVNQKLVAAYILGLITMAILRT
# UniProt Q9BT17: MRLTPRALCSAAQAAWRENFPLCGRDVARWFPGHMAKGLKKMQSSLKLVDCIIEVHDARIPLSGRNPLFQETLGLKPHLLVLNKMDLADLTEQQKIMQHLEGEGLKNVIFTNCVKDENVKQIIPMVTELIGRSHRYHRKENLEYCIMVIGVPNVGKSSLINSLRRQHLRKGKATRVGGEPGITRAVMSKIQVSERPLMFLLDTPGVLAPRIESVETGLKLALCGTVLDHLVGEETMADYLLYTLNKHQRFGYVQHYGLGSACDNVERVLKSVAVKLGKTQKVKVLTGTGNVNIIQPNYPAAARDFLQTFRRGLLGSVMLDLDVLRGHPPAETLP
# UniProt Q5JPI9: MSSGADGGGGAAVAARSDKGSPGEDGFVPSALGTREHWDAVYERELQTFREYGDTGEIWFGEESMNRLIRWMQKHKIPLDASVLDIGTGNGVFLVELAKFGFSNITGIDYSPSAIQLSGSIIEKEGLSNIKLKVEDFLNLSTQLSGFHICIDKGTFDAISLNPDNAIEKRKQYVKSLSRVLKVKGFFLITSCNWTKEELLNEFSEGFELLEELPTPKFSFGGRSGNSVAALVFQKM
# UniProt O95544: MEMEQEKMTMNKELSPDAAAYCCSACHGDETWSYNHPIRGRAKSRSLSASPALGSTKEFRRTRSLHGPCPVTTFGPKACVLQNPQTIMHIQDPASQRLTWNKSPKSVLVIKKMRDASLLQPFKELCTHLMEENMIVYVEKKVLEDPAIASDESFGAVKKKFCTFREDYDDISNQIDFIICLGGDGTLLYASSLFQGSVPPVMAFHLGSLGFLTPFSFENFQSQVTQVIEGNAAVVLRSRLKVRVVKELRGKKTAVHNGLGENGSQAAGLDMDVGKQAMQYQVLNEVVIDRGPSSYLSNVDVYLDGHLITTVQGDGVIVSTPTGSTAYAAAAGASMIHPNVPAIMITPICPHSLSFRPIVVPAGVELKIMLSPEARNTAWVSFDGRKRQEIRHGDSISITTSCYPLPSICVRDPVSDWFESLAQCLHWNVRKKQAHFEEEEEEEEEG
# UniProt Q7Z6M4: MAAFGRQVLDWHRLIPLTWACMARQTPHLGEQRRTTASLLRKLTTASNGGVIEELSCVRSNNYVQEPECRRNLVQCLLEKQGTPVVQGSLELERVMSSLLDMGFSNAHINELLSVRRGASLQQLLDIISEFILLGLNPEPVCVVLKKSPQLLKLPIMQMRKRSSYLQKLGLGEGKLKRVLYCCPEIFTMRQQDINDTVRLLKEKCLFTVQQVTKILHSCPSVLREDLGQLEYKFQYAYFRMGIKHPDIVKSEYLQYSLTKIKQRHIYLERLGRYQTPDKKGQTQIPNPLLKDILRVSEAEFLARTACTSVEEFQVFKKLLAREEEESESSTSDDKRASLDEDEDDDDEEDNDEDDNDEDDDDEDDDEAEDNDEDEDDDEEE
# UniProt Q13459: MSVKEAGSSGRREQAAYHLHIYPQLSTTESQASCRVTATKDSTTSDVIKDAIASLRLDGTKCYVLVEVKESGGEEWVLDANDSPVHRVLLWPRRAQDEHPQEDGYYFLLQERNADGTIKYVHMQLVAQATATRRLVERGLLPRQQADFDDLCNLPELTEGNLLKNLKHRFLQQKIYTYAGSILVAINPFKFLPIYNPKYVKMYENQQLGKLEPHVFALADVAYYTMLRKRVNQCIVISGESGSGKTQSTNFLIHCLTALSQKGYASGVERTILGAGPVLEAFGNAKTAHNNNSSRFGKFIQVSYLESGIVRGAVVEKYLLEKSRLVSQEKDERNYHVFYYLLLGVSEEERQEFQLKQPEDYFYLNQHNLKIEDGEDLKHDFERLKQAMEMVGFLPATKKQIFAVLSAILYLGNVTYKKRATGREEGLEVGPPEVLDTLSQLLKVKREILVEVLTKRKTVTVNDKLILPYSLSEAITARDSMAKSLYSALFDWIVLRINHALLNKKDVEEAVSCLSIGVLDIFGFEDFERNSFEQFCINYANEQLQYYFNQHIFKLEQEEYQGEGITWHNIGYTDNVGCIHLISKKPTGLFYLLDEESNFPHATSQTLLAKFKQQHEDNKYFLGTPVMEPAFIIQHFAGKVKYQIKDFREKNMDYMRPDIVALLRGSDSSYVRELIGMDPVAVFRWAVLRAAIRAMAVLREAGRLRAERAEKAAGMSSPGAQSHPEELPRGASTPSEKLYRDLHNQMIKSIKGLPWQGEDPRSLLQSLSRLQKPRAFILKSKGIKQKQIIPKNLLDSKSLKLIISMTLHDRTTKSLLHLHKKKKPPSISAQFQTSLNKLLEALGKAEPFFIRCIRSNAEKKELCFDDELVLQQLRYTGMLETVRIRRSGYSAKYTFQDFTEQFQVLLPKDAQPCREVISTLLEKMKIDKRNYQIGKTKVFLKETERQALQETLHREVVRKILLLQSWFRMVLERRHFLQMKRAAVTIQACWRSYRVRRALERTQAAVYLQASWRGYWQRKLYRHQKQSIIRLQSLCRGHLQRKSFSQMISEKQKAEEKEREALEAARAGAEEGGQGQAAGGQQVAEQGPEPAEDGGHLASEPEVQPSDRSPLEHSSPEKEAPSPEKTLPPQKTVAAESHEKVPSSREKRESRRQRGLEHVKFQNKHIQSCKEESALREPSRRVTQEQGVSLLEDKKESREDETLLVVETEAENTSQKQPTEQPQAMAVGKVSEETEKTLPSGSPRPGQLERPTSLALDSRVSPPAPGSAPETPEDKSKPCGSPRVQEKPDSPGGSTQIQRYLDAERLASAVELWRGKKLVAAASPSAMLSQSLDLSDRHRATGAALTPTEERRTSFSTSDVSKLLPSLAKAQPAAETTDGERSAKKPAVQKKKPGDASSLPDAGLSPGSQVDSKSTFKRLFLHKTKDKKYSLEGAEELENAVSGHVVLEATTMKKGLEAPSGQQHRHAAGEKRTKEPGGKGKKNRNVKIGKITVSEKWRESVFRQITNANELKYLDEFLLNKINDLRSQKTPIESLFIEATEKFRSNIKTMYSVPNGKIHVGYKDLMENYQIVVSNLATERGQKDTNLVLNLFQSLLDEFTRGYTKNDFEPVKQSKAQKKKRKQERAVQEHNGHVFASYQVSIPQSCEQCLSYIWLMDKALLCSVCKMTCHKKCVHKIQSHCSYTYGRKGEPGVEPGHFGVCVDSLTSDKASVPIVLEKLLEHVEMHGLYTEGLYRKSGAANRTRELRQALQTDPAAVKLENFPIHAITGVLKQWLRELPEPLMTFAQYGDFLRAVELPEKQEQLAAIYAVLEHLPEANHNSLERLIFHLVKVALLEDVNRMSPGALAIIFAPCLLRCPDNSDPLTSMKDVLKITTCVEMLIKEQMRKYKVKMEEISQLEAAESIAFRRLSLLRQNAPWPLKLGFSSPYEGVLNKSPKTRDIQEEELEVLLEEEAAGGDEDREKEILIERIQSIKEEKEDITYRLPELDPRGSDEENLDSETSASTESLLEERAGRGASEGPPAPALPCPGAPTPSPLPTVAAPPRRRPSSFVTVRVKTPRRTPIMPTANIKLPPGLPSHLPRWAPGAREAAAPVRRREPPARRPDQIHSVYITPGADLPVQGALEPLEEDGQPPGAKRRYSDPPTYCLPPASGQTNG
# UniProt A0JLT2: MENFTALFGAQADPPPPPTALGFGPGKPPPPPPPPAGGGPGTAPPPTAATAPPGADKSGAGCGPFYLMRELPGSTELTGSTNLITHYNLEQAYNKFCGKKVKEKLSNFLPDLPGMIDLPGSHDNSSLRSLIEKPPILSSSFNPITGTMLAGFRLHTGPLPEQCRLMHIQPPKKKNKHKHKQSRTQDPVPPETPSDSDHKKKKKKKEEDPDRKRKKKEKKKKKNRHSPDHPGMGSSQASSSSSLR
# UniProt Q86W50: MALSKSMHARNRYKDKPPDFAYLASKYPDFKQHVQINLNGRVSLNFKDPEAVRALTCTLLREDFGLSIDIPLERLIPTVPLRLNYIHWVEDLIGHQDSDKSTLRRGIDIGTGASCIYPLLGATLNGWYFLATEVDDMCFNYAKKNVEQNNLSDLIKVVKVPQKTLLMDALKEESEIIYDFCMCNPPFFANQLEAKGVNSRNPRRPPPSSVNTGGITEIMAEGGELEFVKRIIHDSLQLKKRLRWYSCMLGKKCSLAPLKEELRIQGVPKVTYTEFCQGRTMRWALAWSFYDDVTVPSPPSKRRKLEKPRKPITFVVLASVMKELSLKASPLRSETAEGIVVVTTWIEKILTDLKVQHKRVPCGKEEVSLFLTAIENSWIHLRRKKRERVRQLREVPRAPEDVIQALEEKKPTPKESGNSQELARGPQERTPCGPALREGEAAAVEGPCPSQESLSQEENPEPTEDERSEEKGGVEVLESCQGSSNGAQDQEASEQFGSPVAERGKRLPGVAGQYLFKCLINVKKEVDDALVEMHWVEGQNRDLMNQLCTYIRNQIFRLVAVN
# UniProt Q9BTT4: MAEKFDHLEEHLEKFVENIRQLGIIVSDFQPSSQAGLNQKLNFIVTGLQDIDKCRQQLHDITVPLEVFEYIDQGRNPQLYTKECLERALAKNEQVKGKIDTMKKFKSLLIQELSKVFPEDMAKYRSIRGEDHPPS
# UniProt Q8WV92, whole entry: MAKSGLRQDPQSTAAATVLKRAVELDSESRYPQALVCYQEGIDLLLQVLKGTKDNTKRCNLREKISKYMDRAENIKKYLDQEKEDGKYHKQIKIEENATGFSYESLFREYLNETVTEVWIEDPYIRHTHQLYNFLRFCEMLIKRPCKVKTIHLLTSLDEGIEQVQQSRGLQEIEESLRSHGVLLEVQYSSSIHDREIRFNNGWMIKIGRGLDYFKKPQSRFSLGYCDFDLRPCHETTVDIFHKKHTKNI
# UniProt P20585: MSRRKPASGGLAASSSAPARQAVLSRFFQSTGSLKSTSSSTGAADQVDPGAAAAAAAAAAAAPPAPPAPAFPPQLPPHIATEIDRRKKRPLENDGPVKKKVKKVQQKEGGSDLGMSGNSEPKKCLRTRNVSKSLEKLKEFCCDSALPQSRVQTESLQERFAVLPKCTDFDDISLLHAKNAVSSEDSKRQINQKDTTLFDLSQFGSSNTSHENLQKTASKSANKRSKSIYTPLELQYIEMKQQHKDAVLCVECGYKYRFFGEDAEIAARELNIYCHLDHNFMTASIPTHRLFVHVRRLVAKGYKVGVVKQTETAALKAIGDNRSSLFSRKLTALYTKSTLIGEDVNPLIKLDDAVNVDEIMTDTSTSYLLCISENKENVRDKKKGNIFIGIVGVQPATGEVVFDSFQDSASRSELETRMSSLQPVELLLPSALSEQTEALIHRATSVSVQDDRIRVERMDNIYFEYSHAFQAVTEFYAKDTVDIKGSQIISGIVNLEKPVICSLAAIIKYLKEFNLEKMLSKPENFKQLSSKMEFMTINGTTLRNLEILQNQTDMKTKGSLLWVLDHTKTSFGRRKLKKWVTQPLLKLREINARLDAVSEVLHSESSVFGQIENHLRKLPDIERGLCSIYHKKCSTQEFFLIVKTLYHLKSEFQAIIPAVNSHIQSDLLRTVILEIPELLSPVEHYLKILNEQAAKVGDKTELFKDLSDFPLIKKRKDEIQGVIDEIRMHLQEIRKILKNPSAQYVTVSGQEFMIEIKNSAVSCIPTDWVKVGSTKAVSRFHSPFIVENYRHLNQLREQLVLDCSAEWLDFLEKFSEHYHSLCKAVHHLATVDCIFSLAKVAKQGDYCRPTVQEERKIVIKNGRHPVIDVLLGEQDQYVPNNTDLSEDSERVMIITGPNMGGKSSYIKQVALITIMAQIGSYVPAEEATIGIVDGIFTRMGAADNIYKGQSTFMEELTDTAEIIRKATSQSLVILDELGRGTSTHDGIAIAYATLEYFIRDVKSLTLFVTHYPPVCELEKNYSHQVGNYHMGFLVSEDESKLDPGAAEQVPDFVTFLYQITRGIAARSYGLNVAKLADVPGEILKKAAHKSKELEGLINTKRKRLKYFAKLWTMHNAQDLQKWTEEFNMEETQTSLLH
# The other results are listed elsewhere or left out.
# Compound: COc1ccc(Cn2ccc3cc(C)c(C(=O)NO)cc32)cc1
# Assay: dose-dependent thermal stabilisation call (2D-TPP, DLPTP, 10% FDR) (binary (1 = stabilised)); higher = stabilised by the compound
# Details: system: HL-60 intact cells; concentration range 0.04-10 µM
# Description: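 2D thermal proteome profiling in intact HL-60 cells treated with BRD-3811 (0, 0.04, 0.29, 2, 10 uM) for 90 min at 37 C, then heated 3 min at one of 12 temperatures (42-63.9 C). Soluble protein was quantified by TMT10 MS. The value is the DLPTP call of the paper: dose-dependent thermal stabilisation over all temperatures at 10% FDR (F-test of a dose-response against a flat model); one experiment, one call per tested protein.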
row,Target,dose-dependent thermal stabilisation call
1,MLL4,inactive: 0
2,MRPS16 (UniProt Q9Y3D3),inactive: 0
3,MOCS2,inactive: 0
4,MTAP (UniProt Q13126),inactive: 0
5,MRCL3,inactive: 0
6,MYO1B (UniProt O43795),inactive: 0
7,MICAL1 (UniProt Q8TDZ2),inactive: 0
8,MRPL39 (UniProt Q9NYK5),inactive: 0
9,MOSPD1 (UniProt Q9UJG1),inactive: 0
10,MTG1 (UniProt Q9BT17),inactive: 0
11,MRPL41 (UniProt Q8IXM3),inactive: 0
12,METTL10 (UniProt Q5JPI9),inactive: 0
13,MRTO4 (UniProt Q9UKD2),inactive: 0
14,MRPL27 (UniProt Q9P0M9),inactive: 0
15,NADK (UniProt O95544),inactive: 0
16,MRPL32 (UniProt Q9BYC8),inactive: 0
17,MED25 (UniProt Q71SY5),inactive: 0
18,MYO1G (UniProt B0I1T2),inactive: 0

row,Target,dose-dependent thermal stabilisation call
1,MTERFD2 (UniProt Q7Z6M4),inactive: 0
2,MRPS25 (UniProt P82663),inactive: 0
3,MYO9B (UniProt Q13459),inactive: 0
4,MTMR14 (UniProt Q8NCE2),inactive: 0
5,MED19 (UniProt A0JLT2),inactive: 0
6,METT10D (UniProt Q86W50),inactive: 0
7,MED10 (UniProt Q9BTT4),inactive: 0
8,MRPS6 (UniProt P82932),inactive: 0
9,MRPL3 (UniProt P09001),inactive: 0
10,MITD1 (UniProt Q8WV92),inactive: 0
11,MSH3 (UniProt P20585),inactive: 0
12,MPHOSPH10 (UniProt O00566),inactive: 0
13,MEMO1 (UniProt Q9Y316),inactive: 0
14,MRPS11 (UniProt P82912),inactive: 0
15,MRPS18C (UniProt Q9Y3D5),inactive: 0
16,MRPL49 (UniProt Q13405),inactive: 0
17,MRPL4 (UniProt Q9BYD3),inactive: 0
18,MRPL10 (UniProt Q7Z7H8),inactive: 0
